Measurements from PubChem BioAssay AID590 (National Center for Advancing Translational Sciences (NCATS), 2007).
About 6,500 (11%) of roughly 59,000 compounds were called active. The inconclusive results got no clear call from the source; some entries with a clear call stand among them for comparison. No stated cut-off is given here; in the data, active means max dye-equivalent concentration above about 10 nM; inconclusive means mostly about 1.1 nM to 9.6 nM; inactive means weaker than that.

assay: qHTS Assay for Spectroscopic Profiling in A350 Spectral Region; settings: Compound autofluorescence, 340/450 nm, Alexa 350 dye-equivalents; stronger effect = higher value
Source text: NIH Molecular Libraries Screening Centers Network [MLSCN]
NIH Chemical Genomics Center [NCGC]
Occasionally, the artifactual effect may originate from the compounds own spectral or other biophysical properties which generally tend to track its assay concentration. Pre-screening/profiling the library with respect to the compounds spectral properties should help one exclude false positives early on. While the most informative fluorescent profiling data set is obtained by performing a full excitation and emission scan of each well by using a monochromator-based plate reader, such an approach is practical only on a very limited scale as scanning each well requires long time. An alternative approach, applied here, is to perform plate reader scans using selected excitation and emission wavelength pairs to generate a multidimensional relational database that correlates compound concentration and the respective relative fluorescence intensity at a given wavelength set. A standard curve of Alexa 350 (A 350) present on each plate as six-point concentration series, was used to compute a normalized fluorescence response, termed dye-equivalent concentration, for each compound at each concentration.
NCGC Assay Protocol Summary:
100 mM Tris buffer, pH 8.0
The wells in columns 1 through 4 of a Kalypsys polypropylene 1536-well compound plate were filled with standard solutions of fluorophore corresponding to the spectral region of interest. Solutions of A 350 were placed in the following wells: I1, J1: 3 mM, I2, J2: 300 uM, I3, J3: 30 uM, I4, J4: zero (DMSO), K1, L1: 3 uM, K2, L2: […], K3, L3: 300 nM, K4, L4: zero (DMSO).
Six uL of buffer were dispensed to 1536-well Greiner black plates. Compounds and dye standards (23 nL) were transferred via Kalypsys PinTool. The plates were incubated for 15 min at room temperature, and then read on ViewLux (Perkin-Elmer) High-throughput CCD imager using 340 nm and 450 nm excitation and emission filter set.
Keywords: NIH Roadmap, MLSCN, MLI, MLSMR, qHTS, NCGC, A350, A-350, Fluorescent Profiling.

Row | SMILES | max dye-equivalent concentration
1 | COc1ccccc1Oc1ccc(S(=O)(=O)Nc2cccnc2)cc1 | inconclusive: 1.2 nM
2 | COc1ccc(CCNC(=O)C2CCN(S(=O)(=O)c3cccc4nonc34)CC2)cc1OC | inactive
3 | Oc1ccc(-c2csc(Nc3cccnc3)n2)cc1 | inconclusive: 1.2 nM
4 | CS(=O)(=O)c1ccc2nc(N)sc2c1 | inconclusive: 5.2 nM
5 | CCOC(=O)c1cnc(-n2cc(C)cn2)nc1Nc1ccccc1OC | inconclusive: 1.2 nM
6 | Cc1cccc(-n2c(SCC(=O)Nc3nonc3C)nnc2-c2ccoc2C)c1 | inconclusive: 1.2 nM
7 | N=c1n(CCO)c2ccccc2n1Cc1ccc(Cl)cc1 | inactive
8 | O=C(NC1CCN(Cc2nnnn2CCc2ccccc2)CC1)c1ccccc1F | inconclusive: 1.2 nM
9 | c1ccc2c(c1)oc1c(Nc3ccc(CN4CCOCC4)cc3)ncnc12 | inconclusive: 2.1 nM
10 | Cc1nc2ncnn2c(N2CCN(C(=O)c3cccc(F)c3)CC2)c1Cc1ccccc1 | inconclusive: 3.7 nM
11 | CC1(C2(O)CC(c3ccccc3)ON2)CCCCC1 (stereo not given) | inconclusive: 3 nM
12 | N[C@H](Cc1ccc(F)cc1)C(=O)O | active: 51 nM
13 | O=C1CCCC2=C1C(c1ccncc1)c1c(nc(SCc3ccccc3Cl)[nH]c1=O)N2 (stereo not given) | active: 39 nM
14 | COc1cccc(C2C(C(=O)NCc3ccccc3)=C(C)Nc3ncnn32)c1 (stereo not given) | inconclusive: 2.6 nM
15 | COc1ccc(OC)c(CNC(=O)CCN2C(=O)COc3ccccc32)c1 | active: 7500 nM
16 | C[C@]12CC[C@H]3c4ccc(O)cc4CC[C@@H]3[C@H]1C/C(=N/O)[C@H]2O | inactive
17 | O=C(CSc1nnc(-c2ccco2)n1Cc1ccccc1)c1ccc(F)cc1 | inconclusive: 1.2 nM
18 | O=C(CN1CCC(n2nnc3cc(F)ccc32)CC1)NCc1ccco1 | inactive
19 | c1cn2cc(CN3CCOCC3)nc2s1 | inactive
20 | O=C(Cn1ccnc1[N+](=O)[O-])NCCO | inactive
21 | O=C(Cn1cnc2c(oc3ccccc32)c1=O)NCC1CCCO1 (stereo not given) | inactive
22 | COc1ccc(-c2nc3cnc(N(C)C)nc3n(CCC#N)c2=O)cc1 | inconclusive: 3.6 nM
23 | COCCn1cc(C(=O)N2CCN(C)CC2)c2c3ccccc3n(C)c2c1=O | active: 740 nM

An excerpt of these results, in CSV form.
Row,SMILES,max dye-equivalent concentration
10,Cc1nc2ncnn2c(N2CCN(C(=O)c3cccc(F)c3)CC2)c1Cc1ccccc1,inconclusive: 3.7 nM
11,CC1(C2(O)CC(c3ccccc3)ON2)CCCCC1 (stereo not given),inconclusive: 3 nM
12,N[C@H](Cc1ccc(F)cc1)C(=O)O,active: 51 nM
13,O=C1CCCC2=C1C(c1ccncc1)c1c(nc(SCc3ccccc3Cl)[nH]c1=O)N2 (stereo not given),active: 39 nM
14,COc1cccc(C2C(C(=O)NCc3ccccc3)=C(C)Nc3ncnn32)c1 (stereo not given),inconclusive: 2.6 nM
15,COc1ccc(OC)c(CNC(=O)CCN2C(=O)COc3ccccc32)c1,active: 7500 nM
16,C[C@]12CC[C@H]3c4ccc(O)cc4CC[C@@H]3[C@H]1C/C(=N/O)[C@H]2O,inactive
17,O=C(CSc1nnc(-c2ccco2)n1Cc1ccccc1)c1ccc(F)cc1,inconclusive: 1.2 nM
18,O=C(CN1CCC(n2nnc3cc(F)ccc32)CC1)NCc1ccco1,inactive
19,c1cn2cc(CN3CCOCC3)nc2s1,inactive

Next part:

Row | SMILES | max dye-equivalent concentration
24 | CCOc1ccc(CN2CCN(C(=O)c3ccccc3)CC2)cc1 | inconclusive: 1.1 nM
25 | CCN(CC)CC(=O)Nc1ccc(-c2nc3cc(NC(=O)CN(CC)CC)ccc3o2)cc1 | active: 16 nM
26 | CCN(CC)CCN1C(=O)c2cccc3cc(N)cc(c23)C1=O | inconclusive: 1.5 nM
27 | O=C(Nc1ccccc1C(=O)OC1CCOC1=O)c1ccco1 (stereo not given) | inconclusive: 2.8 nM
28 | COc1ccc(N2CCN(CCNC(=O)c3nnc(Cc4c(F)cccc4Cl)o3)CC2)cc1 | inconclusive: 1.5 nM
29 | CCc1ccc(N2CC(C(=O)OCC(=O)Nc3cc(C)on3)CC2=O)cc1 (stereo not given) | inconclusive: 2.2 nM
30 | O=C(Nc1ccc2c(c1)OCCO2)C1CCCN1S(=O)(=O)c1ccc(Cl)cc1 (stereo not given) | inactive
31 | COc1ccc(-c2nc3cnc(N(C)C)nc3n(CCc3ccccc3)c2=O)cc1 | active: 13 nM
32 | CC1=C2C(CCS2(=O)=O)CC2(C1)C(=O)OC(C)(C)OC2=O (stereo not given) | inactive
33 | CS(=O)(=O)Nc1ccc(C(=O)NCc2cccnc2)cc1 | inconclusive: 2.7 nM
34 | Cc1ccc(S(=O)(=O)Nc2ccc3ncccc3c2)cc1 | inconclusive: 2.4 nM
35 | CC(C)c1nc(N2CCCC2)c(C#N)c2c1CCCC2 | active: 320 nM
36 | O=C(NCCc1ccccc1)c1cnn2c(C(F)F)cc(C3CC3)nc12 | active: 15 nM
37 | C[C@]12CCC3c4ccc(O)cc4CCC3[C@@H]1CCC2=O (stereo not given in full) | inconclusive: 1.4 nM
38 | COc1cccc(Cn2c(=O)c(CCc3ccccc3)nc3cncnc32)c1 | inactive
39 | O=S(=O)(/N=C(/Nc1cc(N2CCOCC2)ncn1)c1ccc(F)cc1)c1ccccc1 | inconclusive: 1.4 nM
40 | CCOC(=O)N1CCC(NC(=O)CCCN2C(=O)CSc3ncccc32)CC1 | inconclusive: 1.6 nM
41 | CCN1CCc2c(sc(N)c2C#N)C1 | active: 66 nM
42 | O=C(Nc1nnc(SCc2ccccc2)s1)c1cccs1 | inconclusive: 1.9 nM
43 | COC(=O)Cc1c(C)c2ccc(OCC(=O)NCc3ccc4c(c3)OCO4)cc2oc1=O | inconclusive: 8.9 nM
44 | COc1cccc(-c2nc(CS(=O)(=O)CC(=O)NCCCOC(C)C)c(C)o2)c1 | inconclusive: 4.4 nM
45 | CCC12CCCN3CCC4(C(=C(C(=O)OC)C1)Nc1ccccc14)C32 (stereo not given) | inconclusive: 3.9 nM
